The supplement of paper PMC10849652
The list shows a part of the results.

Chains of the proteins cited; added tags and fusions are not shown. Lines headed by an entry give the natural chain unless they say otherwise; changes in a name come on top.
UniProt Q9Y4C4: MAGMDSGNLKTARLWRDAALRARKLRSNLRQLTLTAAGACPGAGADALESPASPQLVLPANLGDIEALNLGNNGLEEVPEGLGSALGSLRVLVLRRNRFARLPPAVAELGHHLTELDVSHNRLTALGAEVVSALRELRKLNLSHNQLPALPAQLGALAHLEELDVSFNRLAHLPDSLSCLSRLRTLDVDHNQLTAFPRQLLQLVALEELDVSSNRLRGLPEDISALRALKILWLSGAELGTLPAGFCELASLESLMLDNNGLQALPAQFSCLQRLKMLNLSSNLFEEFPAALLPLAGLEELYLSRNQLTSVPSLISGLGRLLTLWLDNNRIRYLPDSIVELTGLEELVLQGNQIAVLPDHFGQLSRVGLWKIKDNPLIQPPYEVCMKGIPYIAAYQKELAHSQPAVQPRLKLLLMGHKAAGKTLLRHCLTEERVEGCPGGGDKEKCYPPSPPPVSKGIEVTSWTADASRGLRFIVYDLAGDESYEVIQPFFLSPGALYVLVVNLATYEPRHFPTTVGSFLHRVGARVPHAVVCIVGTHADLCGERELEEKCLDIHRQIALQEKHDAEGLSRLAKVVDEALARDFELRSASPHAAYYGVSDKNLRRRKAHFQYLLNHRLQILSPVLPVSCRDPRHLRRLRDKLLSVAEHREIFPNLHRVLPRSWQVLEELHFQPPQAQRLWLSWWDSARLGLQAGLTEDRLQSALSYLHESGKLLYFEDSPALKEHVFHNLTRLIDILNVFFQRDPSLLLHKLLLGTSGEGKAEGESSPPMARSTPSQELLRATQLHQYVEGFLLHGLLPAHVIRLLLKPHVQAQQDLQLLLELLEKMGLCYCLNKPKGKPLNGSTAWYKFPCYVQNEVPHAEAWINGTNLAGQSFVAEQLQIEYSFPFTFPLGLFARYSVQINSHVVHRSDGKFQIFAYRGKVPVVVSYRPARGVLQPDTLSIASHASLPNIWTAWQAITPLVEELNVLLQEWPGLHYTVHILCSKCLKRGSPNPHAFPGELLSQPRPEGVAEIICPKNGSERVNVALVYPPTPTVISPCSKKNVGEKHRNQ
UniProt Q8NHS3: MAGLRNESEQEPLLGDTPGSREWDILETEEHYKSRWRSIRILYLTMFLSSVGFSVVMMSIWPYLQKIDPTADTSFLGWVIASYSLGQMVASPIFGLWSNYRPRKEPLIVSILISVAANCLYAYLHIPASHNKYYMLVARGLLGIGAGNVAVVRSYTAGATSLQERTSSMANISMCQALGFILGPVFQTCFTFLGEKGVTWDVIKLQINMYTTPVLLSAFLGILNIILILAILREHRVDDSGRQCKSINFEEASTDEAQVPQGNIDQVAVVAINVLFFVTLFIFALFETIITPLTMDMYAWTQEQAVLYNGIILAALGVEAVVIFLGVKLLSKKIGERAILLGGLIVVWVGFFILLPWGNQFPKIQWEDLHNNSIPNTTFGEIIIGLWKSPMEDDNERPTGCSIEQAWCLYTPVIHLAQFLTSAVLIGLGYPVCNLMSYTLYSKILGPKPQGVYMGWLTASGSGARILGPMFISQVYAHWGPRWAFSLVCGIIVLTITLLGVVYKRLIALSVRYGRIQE
UniProt A4D2B0: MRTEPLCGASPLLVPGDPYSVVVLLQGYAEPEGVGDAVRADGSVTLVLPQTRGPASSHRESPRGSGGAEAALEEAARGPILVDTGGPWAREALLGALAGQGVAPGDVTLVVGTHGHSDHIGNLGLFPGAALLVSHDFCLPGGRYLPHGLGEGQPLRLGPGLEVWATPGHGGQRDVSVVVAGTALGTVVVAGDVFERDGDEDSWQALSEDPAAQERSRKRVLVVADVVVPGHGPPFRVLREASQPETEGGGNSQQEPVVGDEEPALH
UniProt O43462: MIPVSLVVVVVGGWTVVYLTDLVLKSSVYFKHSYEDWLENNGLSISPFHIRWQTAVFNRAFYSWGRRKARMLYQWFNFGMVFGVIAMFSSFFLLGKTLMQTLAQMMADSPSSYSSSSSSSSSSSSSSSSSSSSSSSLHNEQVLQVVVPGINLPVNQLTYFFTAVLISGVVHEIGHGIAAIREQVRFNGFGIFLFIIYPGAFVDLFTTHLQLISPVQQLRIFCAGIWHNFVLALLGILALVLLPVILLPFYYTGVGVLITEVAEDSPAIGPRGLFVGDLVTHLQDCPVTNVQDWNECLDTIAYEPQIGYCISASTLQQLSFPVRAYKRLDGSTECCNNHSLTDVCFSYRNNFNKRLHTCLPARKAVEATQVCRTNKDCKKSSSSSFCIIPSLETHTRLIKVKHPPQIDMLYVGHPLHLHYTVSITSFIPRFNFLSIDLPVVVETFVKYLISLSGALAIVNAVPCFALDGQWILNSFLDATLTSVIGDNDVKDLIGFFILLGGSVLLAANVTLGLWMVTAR
UniProt Q9NWA0: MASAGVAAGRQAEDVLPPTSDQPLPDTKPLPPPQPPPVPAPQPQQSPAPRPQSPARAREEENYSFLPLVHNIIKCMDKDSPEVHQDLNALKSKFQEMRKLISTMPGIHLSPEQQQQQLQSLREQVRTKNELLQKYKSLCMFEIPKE
UniProt O14770: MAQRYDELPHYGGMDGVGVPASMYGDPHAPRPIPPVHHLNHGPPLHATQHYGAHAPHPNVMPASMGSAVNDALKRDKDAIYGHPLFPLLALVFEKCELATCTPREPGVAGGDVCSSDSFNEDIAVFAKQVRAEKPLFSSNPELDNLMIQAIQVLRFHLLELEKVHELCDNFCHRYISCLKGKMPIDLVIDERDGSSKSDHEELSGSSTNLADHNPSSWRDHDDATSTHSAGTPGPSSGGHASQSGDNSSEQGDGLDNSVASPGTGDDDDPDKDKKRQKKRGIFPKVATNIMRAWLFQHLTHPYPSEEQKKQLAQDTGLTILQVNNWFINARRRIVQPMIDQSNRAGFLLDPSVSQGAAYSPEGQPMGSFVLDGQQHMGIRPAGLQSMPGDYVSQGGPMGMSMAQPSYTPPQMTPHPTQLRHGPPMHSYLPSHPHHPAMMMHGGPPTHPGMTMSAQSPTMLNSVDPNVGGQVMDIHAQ
UniProt Q5VZF2: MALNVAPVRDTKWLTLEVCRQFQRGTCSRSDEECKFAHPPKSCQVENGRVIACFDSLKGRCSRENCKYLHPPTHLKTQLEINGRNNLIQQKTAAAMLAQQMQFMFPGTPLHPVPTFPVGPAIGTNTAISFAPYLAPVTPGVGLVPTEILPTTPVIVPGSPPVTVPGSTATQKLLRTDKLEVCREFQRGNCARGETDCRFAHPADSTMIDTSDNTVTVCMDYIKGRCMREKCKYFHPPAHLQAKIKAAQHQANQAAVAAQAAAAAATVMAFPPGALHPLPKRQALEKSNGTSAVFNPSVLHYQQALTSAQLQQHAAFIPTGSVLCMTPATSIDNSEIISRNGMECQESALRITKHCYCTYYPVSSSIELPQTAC
UniProt Q02078: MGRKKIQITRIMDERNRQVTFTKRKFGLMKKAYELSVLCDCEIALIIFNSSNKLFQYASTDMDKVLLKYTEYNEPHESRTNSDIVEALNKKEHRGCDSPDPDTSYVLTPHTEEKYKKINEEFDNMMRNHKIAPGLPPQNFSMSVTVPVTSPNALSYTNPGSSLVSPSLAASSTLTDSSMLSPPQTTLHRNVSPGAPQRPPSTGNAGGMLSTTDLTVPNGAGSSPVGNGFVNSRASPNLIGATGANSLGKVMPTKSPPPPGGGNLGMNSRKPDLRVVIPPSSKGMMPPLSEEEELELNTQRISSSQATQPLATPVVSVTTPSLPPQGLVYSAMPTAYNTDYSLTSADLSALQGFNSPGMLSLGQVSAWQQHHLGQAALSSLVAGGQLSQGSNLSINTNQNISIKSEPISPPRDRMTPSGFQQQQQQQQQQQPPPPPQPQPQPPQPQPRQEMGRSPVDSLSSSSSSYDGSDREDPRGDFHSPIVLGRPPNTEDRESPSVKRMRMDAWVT
UniProt Q9NS73: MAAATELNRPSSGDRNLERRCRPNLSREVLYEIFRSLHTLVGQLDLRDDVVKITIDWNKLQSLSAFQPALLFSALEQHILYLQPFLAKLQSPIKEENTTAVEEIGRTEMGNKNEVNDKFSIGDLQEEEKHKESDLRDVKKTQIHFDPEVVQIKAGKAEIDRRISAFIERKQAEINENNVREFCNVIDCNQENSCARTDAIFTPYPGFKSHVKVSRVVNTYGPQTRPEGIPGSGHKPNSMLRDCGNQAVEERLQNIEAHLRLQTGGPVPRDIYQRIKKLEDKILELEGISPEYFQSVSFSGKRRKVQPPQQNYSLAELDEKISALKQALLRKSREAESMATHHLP
UniProt Q9H7H0: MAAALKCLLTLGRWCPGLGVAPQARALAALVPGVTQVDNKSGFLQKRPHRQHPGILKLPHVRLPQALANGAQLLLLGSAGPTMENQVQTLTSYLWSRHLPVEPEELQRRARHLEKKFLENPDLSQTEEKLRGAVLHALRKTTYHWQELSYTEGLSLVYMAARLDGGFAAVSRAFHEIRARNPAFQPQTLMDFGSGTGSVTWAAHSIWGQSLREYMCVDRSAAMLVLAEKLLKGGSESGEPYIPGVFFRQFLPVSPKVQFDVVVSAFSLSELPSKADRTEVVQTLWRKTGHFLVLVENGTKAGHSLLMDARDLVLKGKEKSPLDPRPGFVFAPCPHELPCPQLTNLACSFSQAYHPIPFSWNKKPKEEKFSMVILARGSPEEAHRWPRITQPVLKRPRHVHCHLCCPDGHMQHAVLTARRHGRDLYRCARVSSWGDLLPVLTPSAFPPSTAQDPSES
UniProt Q13503: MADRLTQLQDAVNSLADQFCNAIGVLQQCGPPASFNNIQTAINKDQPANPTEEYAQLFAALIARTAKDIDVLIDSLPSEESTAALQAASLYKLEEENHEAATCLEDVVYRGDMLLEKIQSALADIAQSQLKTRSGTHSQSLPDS
UniProt Q6P0Q8: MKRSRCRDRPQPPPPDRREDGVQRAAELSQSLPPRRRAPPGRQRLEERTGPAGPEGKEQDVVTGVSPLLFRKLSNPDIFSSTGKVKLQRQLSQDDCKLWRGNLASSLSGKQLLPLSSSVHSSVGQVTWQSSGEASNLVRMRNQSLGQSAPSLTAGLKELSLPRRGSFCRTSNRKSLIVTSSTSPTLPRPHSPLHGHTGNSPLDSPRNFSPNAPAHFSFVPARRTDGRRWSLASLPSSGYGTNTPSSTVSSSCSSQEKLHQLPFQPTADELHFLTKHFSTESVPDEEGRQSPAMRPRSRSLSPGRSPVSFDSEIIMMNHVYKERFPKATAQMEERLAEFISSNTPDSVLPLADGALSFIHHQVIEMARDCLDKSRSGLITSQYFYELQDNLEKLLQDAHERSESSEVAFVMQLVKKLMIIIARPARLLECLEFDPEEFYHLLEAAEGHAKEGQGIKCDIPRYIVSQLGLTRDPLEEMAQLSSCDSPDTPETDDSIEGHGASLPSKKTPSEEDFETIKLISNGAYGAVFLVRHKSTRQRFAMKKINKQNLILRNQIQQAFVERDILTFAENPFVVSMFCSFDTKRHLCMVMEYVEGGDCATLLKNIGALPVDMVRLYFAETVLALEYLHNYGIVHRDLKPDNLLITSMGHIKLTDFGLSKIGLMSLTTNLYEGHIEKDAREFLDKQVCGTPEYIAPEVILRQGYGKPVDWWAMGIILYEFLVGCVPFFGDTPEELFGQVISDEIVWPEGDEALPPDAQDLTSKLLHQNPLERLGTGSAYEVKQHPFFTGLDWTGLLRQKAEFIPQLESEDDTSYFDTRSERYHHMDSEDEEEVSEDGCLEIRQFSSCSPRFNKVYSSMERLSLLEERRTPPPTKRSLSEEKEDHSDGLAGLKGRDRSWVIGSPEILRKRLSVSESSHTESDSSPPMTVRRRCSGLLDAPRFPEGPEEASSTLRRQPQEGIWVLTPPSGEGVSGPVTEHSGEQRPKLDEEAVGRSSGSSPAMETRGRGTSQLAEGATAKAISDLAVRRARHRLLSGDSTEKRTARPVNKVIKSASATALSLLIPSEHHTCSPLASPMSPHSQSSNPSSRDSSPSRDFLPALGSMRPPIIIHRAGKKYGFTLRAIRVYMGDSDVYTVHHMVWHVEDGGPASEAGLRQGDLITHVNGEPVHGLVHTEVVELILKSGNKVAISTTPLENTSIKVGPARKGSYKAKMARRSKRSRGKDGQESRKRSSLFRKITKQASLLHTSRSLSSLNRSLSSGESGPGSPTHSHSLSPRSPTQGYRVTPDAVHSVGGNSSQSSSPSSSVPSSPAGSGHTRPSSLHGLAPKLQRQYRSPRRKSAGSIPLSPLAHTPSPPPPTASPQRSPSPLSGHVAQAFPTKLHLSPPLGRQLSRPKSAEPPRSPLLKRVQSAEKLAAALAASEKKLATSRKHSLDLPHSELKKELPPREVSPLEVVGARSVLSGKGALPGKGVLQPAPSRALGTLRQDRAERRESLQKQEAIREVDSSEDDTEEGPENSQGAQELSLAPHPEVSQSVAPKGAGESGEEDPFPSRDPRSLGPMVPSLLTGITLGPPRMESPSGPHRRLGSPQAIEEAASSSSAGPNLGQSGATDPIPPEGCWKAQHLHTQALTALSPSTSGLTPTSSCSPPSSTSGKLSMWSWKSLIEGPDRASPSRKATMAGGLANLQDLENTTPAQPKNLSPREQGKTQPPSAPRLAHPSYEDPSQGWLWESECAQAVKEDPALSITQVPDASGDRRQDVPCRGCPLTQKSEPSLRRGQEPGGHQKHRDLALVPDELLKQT

What follows are targets tested with Cc1cc(SCc2sc(-c3ccc(C(F)(F)F)cc3)nc2C)ccc1OCC(=O)O (assay: log2 fold change, soluble protein after heating vs DMSO (PISA); higher = thermal stabilisation; K562 cells, 10 uM, 30 min; active = over 0.2 and 3.5 SD of the protein, either way, in both replicates (recomputed)).
How it was run: (§1)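 K562 cells at 2×10^6 cells/mL were exposed to 10 μM compound for 30 min, then aliquots were heated for 3 min across 48°C-58°C, pooled, and extracted in PBS containing 0.5% NP-40 at 4°C. The supernatant after 21,000xg for 90 min was taken as soluble protein and measured by TMTpro 16plex LC-MS/MS with channel sums equalised. Thermal stability is reported relative to control samples, with values from duplicates. Fold changes are given on a log2 scale.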

Row | Target | log2 fold change
1 | MFHAS1 (UniProt Q9Y4C4) | inactive: -0.143
2 | MFSD6 (UniProt Q6ZSS7) | inactive: -0.187
3 | MFSD8 (UniProt Q8NHS3) | inactive: -0.015
4 | MBLAC1 (UniProt A4D2B0) | inactive: -0.017
5 | MFAP3 (UniProt P55082) | inactive: 0.003
6 | MED29 (UniProt Q9NX70) | inactive: 0.171
7 | MBTPS2 (UniProt O43462) | inactive: -0.109
8 | MDK (UniProt P21741) | inactive: 0.036
9 | METTL9 (UniProt Q9H1A3) | inactive: -0.109
10 | METTL15 (UniProt A6NJ78) | inactive: 0.121
11 | MED28 (UniProt Q9H204) | inactive: 0.011
12 | MFSD12 isoform 3 (UniProt Q6NUT3) | inactive: 0.065
13 | MATK isoform 2 (UniProt P42679) | inactive: -0.08
14 | MED9 (UniProt Q9NWA0) | inactive: -0.155
15 | MED27 (UniProt Q6P2C8) | inactive: -0.009
16 | MFSD9 (UniProt Q8NBP5) | inactive: -0.029
17 | MEIS2 (UniProt O14770) | inactive: 0.029

Each target was assayed with Cc1ccc(-n2nc(C(C)(C)C)cc2NC(=O)Nc2ccc(OCCN3CCOCC3)c3ccccc23)cc1 [doramapimod] in the same assay as above.
How it was run: as §1

Row | Target | log2 fold change
18 | MFHAS1 (UniProt Q9Y4C4) | inactive: 0.126
19 | MFSD8 (UniProt Q8NHS3) | inactive: 0.131
20 | MBNL2 (UniProt Q5VZF2) | inactive: 0.117
21 | MBLAC1 (UniProt A4D2B0) | inactive: 0.169
22 | MBTPS2 (UniProt O43462) | inactive: 0.015
23 | MEF2A isoform 2 (UniProt Q02078) | inactive: 0.019
24 | MEGF8 (UniProt Q7Z7M0) | inactive: 0.374
25 | MED11 (UniProt Q9P086) | inactive: 0.131
26 | MED9 (UniProt Q9NWA0) | inactive: 0.072
27 | MED31 (UniProt Q9Y3C7) | inactive: 0.124
28 | MBIP (UniProt Q9NS73) | inactive: 0.016
29 | MGRN1 isoform 2 (UniProt O60291) | inactive: 0.012
30 | MEIS2 (UniProt O14770) | inactive: -0.043

What follows are targets tested with Cc1ccc(C(=O)N(CCCN)[C@@H](c2nc3cc(Cl)ccc3c(=O)n2Cc2ccccc2)C(C)C)cc1 [ispinesib] in the same assay as above.
How it was run: as §1

Row | Target | log2 fold change
31 | MEX3C (UniProt Q5U5Q3) | inactive: 0.029
32 | MFHAS1 (UniProt Q9Y4C4) | inactive: 0.161
33 | METTL17 isoform 3 (UniProt Q9H7H0) | inactive: -0.091
34 | MFSD8 (UniProt Q8NHS3) | inactive: -0.208
35 | MED21 (UniProt Q13503) | inactive: 0.325
36 | MBNL2 (UniProt Q5VZF2) | inactive: 0.089
37 | MBLAC1 (UniProt A4D2B0) | inactive: -0.142
38 | MBTPS2 (UniProt O43462) | inactive: -0.189
39 | MAU2 (UniProt Q9Y6X3) | inactive: 0.094
40 | METTL9 (UniProt Q9H1A3) | inactive: -0.12
41 | MCOLN3 (UniProt Q8TDD5) | inactive: -0.255
42 | MAST2 (UniProt Q6P0Q8) | inactive: 0.052
43 | MED28 (UniProt Q9H204) | inactive: 0.132
44 | MED9 (UniProt Q9NWA0) | inactive: 0.228
45 | MEX3B (UniProt Q6ZN04) | inactive: -0.43
46 | MED31 (UniProt Q9Y3C7) | inactive: -0.001
47 | MFSD1 isoform 6 (UniProt Q9H3U5) | active: -0.367
48 | MBIP (UniProt Q9NS73) | inactive: -0.096
49 | MGRN1 isoform 2 (UniProt O60291) | inactive: -0.225
50 | MEIS2 (UniProt O14770) | inactive: 0.038
